Our source for the step yield and conjugation yield values is patent US20250295799A1 (Zymeworks BC Inc., priority 2022, published 2025).

The nature of the data set: general procedure: solution-phase peptide synthesis; HATU.

“(9H-fluoren-9-yl)methyl ((7S)-1-((3-azabicyclo[3.1.1]heptan-6-yl)oxy)-7-benzyl-3,6,9,12-tetraoxo-2,5,8,11-tetraazatridecan-13-yl)carbamate” came in with a step yield (late stage modification step) of 46%.
Where the note is “coupling step”, “2-((2-(((S)-1-((2-(((S)-4-ethyl-8-fluoro-4-hydroxy-3,14-dioxo-3,4,12,14-tetrahydro-1H-pyrano[3′,4′:6,7]indolizino[1,2-b]quinolin-9-yl)amino)-2-oxoethyl)amino)-1-oxo-3-phenylpropan-2-yl)amino)-2-oxoethyl)amino)-2-oxoethan-1-aminium” displayed a step yield of 88%.
As to “(9H-fluoren-9-yl)methyl (S)-(9-benzyl-1-(3-fluoroazetidin-3-yl)-5,8,11,14-tetraoxo-2-oxa-4,7,10,13-tetraazapentadecan-15-yl)carbamate”, the step yield (late stage modification step) was 54%.
As to “(S)-16-amino-10-benzyl-6,9,12,15-tetraoxo-3-oxa-5,8,11,14-tetraazahexadecyl (((S)-4-ethyl-8-fluoro-4-hydroxy-9-methyl-3,14-dioxo-3,4,12,14-tetrahydro-1H-pyrano[3′,4′:6,7]indolizino[1,2-b]quinolin-11-yl)methyl)carbamate”, the conjugation yield (conjugation step, TFA salt) is recorded as 39%.
